The list shows a part of the results. Further columns of the screen follow, without active or inactive calls. Most of these compounds were active or inconclusive in the main read-out, so they are no random draw. Potencies come from curve fits of mixed quality, noted in brackets.
Assay: qHTS Assay to Find Inhibitors of Chronic Active B-Cell Receptor Signaling
Conditions: ABC-DLBCL IkBa-CBG/CBR reporter, luminescence ratio (green luciferase fused to IkBa over red control in TMD8 lymphoma cells), 4 h
Outline: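 Doxycycline induced both beetle luciferases in TMD8 lymphoma cells; IKK-driven degradation limits the IkappaBalpha-fused green signal, while red luminescence normalises for cell number and nonspecific effects. Compounds tested up to 46 uM, 4 hrs.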

[1] = measured here: CBR red luminescence, cell number
[2] = measured here: IkBa-CBG green luminescence

Row | SMILES | AC50 [1] | AC50 [2]
1 | Cc1c(C(=O)c2ccccc2)c2ccccn2c1CCC#N | 1 µM [rising, partial curve, poor fit] | 
2 | Cc1cc2n(n1)C(c1ccccc1)CC(c1ccc(Br)cc1)=N2 (stereo not drawn) | 4.61 µM [falling, single point] | 
3 | CCCCn1c(=O)n(CC(=O)Nc2ccc(C)c(Cl)c2)c(=O)c2c1ncn2Cc1ccco1 | 29.1 µM [falling, single point] | 
4 | CCOC(=O)c1ccc([N+](=O)[O-])c(CS(=O)(=O)c2ccc(Cl)cc2)c1 | 0.631 µM [rising, full curve, poor fit] | 
5 | COc1ccc(-c2csc(NC(=O)c3ccccc3NS(=O)(=O)c3ccc(F)c(F)c3)n2)cc1 | 5.62 µM [falling, single point] | 
6 | O=C(Nc1ccc(F)cc1)N1CCN(c2ccc3nnc(-c4ccc(F)cc4)n3n2)CC1 | 7.31 µM [rising, single point] | 
7 | CN(CC(=O)Nc1ccc(F)c(F)c1F)c1cnccn1 | 35.5 µM [falling, single point] | 
8 | O=C(NC1CCCCCC1)c1ccc(-n2cnnc2)cc1 | 7.08 µM [falling, partial curve, poor fit] | 
9 | N#Cc1nc(COc2ccccc2)oc1N1CCOCC1 | 0.651 µM [rising, partial curve, poor fit] | 
10 | COc1ccccc1N1CCN(C(=O)c2c(-c3c(Cl)cccc3Cl)noc2C)CC1 | 4.61 µM [rising, partial curve, poor fit] | 
11 | Cc1ccnc(NS(=O)(=O)c2ccc(NC(=O)C3CCCNC3=O)cc2)n1 (stereo not drawn) | 7.94 µM [rising, partial curve, poor fit] | 
12 | Cc1ccc(-c2nc(SCC(=O)Nc3ccccc3OC(F)F)c3c(C)c(C(=O)O)sc3n2)cc1 | 1.78 µM [falling, full curve, poor fit] | 
13 | CC(=O)Nc1cc(C)c2nc(NC(C)=O)sc2c1 | 3.55 µM [falling, partial curve, poor fit] | 
14 | O=C(Nc1cccc(O)c1)c1cc(-c2ccc3c(c2)OCO3)on1 | 2.51 µM [falling, partial curve] | 
15 | Clc1ccc(-c2nnc3n2CCCCC3)cc1 | 2.31 µM [rising, partial curve, poor fit] | 
16 | Cc1cccnc1NC(=O)c1ccc(S(=O)(=O)N2CCCCC2)cc1 | 16.4 µM [falling, single point] | 
17 | COc1ccc(Cc2nnc(SCC(=O)NC3CCCC3)o2)cc1 | 8.2 µM [rising, partial curve] | 29.1 µM [falling, single point]
18 | CCN1CCN(Cc2ccc(NC(=O)c3ccc(C)c(NC(=O)c4csc(-c5ccncc5)n4)c3)cc2C(F)(F)F)CC1 | 35.5 µM [falling, single point] | 
19 | COc1ccc(-c2cn(-c3ccccc3)nc2CO)cc1 | 0.282 µM [rising, full curve, poor fit] | 
20 | CC(=O)c1cccc(NC(=O)CSc2nnc3ccc(-c4ccc(F)cc4)nn23)c1 | 7.08 µM [rising, partial curve, poor fit] | 

Looked up one by one from the list above (three):
Row | SMILES | AC50 [1] | AC50 [2]
11 | Cc1ccnc(NS(=O)(=O)c2ccc(NC(=O)C3CCCNC3=O)cc2)n1 (stereo not drawn) | 7.94 µM [rising, partial curve, poor fit] | 
18 | CCN1CCN(Cc2ccc(NC(=O)c3ccc(C)c(NC(=O)c4csc(-c5ccncc5)n4)c3)cc2C(F)(F)F)CC1 | 35.5 µM [falling, single point] | 
10 | COc1ccccc1N1CCN(C(=O)c2c(-c3c(Cl)cccc3Cl)noc2C)CC1 | 4.61 µM [rising, partial curve, poor fit] | 

Additional compounds follow.

Row | SMILES | AC50 [1] | AC50 [2]
21 | O=C(Nc1cc(S(=O)(=O)N2CCCCC2)ccc1O)c1ccccc1NS(=O)(=O)c1ccc(F)c(F)c1 | 0.116 µM [falling, full curve, poor fit] | 
22 | COc1cc(C(=S)N2CCCC2)ccc1OCc1ccc(C)cc1 | 35.5 µM [falling, single point] | 
23 | CCN(CC(=O)NC(C)C)Cc1nc2sc3c(c2c(=O)[nH]1)CCC3 | 32.6 µM [falling, single point] | 
24 | COc1ccc2c(c1)C(C)=CC(C)(C)N2S(=O)(=O)c1ccc(NC(C)=O)cc1 |  | 7.08 µM [falling, full curve]
25 | CCOC(=O)C1CCN(C(=O)COC(=O)/C=C/c2ccccc2)CC1 | 29.1 µM [falling, single point] | 
26 | COc1ccc(OC)c(C2CC(=O)Nc3n[nH]c(-c4ccccc4)c32)c1 (stereo not drawn) | 31.6 µM [rising, single point] | 12.6 µM [falling, partial curve]
27 | CN(C)c1ccc(-c2nnc(-c3ccccc3F)o2)cc1 | 8.91 µM [falling, partial curve] | 
28 | CCn1c(/C(C#N)=C(\O)CCc2ccccc2)nc2ccccc21 | 0.326 µM [rising, full curve, poor fit] | 
29 | O=C(NCc1ccc2c(c1)OCO2)c1ccc(CS(=O)(=O)c2ccc(Br)cc2)o1 | 29.1 µM [falling, single point] | 
30 | O=C(Nc1ccc(OC(F)F)cc1)c1ccccn1 | 6.31 µM [falling, full curve] | 
31 | Cc1ccc(C(C)C)c(OCC(=O)NN2C(=O)c3ccccc3C2=O)c1 | 35.5 µM [rising, single point] | 35.5 µM [falling, single point]
32 | COc1ccc(C(C)NS(=O)(=O)Cc2ccccc2)cc1 (stereo not drawn) | 35.5 µM [rising, single point] | 
33 | O=C(C1CC(c2ccc(F)cc2)=NO1)N1CCCc2ccccc21 (stereo not drawn) | 6.51 µM [rising, partial curve] | 
34 | c1cncc(-c2nnc3n2N=C(c2cccs2)CS3)c1 | 20.6 µM [falling, single point] | 
35 | CC(=O)N1c2ccc(S(=O)(=O)NCC3CCC(C(=O)Nc4cc(C)ccn4)CC3)cc2CC1C (stereo not drawn) | 12.6 µM [falling, single point] | 
36 | CC1C(c2ccccc2)N(C)CCC12NC(=O)NC2=O (stereo not drawn) | 23.1 µM [rising, single point] | 
37 | Cc1nc(/C=C/c2ccccc2)cc(/C=C/c2ccccc2)n1 | 13 µM [rising, partial curve] | 
38 | N=c1sccn1CC(=O)Nc1cccc2ccccc12 | 6.51 µM [falling, single point] | 
39 | COCC(C)n1c(C)cc(C(=O)CSc2ccc(NC(C)=O)cc2)c1C (stereo not drawn) | 6.51 µM [rising, single point] | 
40 | c1ccc(C2=Nc3ccccc3NC(c3ccccc3)C2)cc1 (stereo not drawn) | 35.5 µM [falling, single point] | 

From PubChem BioAssay AID493014 (National Center for Advancing Translational Sciences (NCATS), 2011)
